Reference: paper PMC11611742
No constants are given. Whether binding was seen depends on the method and setting. Some results given as binding are weak or reduced against the parent protein; the word gives no strength.

Chains of the proteins cited; added tags and fusions are not shown.
UniProt P35222: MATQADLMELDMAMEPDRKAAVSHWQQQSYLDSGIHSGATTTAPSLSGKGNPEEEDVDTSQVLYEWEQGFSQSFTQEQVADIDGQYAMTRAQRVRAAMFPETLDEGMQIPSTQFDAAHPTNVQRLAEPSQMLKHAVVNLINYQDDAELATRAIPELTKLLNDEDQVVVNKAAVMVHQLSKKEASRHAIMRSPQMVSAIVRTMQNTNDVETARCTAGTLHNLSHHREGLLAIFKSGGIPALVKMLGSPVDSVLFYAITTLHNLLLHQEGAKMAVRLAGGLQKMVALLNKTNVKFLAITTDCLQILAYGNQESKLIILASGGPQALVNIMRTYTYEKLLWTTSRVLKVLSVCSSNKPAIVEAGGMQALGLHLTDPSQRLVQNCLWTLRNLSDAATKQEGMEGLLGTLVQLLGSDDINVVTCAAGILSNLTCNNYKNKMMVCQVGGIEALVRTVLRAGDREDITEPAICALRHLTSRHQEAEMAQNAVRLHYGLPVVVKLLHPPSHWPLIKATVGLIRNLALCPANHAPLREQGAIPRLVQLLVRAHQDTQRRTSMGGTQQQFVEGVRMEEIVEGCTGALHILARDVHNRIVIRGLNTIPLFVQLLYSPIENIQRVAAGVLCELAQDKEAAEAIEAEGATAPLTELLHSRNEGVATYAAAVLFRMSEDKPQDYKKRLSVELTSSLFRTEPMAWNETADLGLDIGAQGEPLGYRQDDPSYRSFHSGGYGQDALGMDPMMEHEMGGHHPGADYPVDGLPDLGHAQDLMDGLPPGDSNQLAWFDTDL

Molecular target: T1, USP10 peptide, residues 7-21
T1 sequence (peptide): QYIFGDFSPDEFNQF
Assay: peptide or protein array; µSPOT: 15-mer peptides (overlapping 12 or 11 amino acids) of disordered regions on slides, incubated with recombinant purified β-Catenin; immunostaining with chemiluminescent readout; both purified

## recombinant β-Catenin (from UniProt P35222 1-781)
  binding: binds
